Numbering of substitutions follows the chain as printed. Results are given in words; binding and its absence hold for the method and conditions named. In cells and extracts the contact can be indirect. Some entries that bind do so weakly or less than the wild type. Sequences can lack the tags named with a protein.
How the values were obtained:
Experiment in all cases: co-IP; GFP-nanotrap of GFP-SNX17 or its mutants from transiently transfected HEK293T cells, endogenous partners; lysis in 0.5% NP-40, 50 mM Tris pH 7.5 in ddH2O; quantitative western blot
[1] = target: T1, GFP-SNX17(F462A) (human) (UniProt Q15036)
T1 sequence: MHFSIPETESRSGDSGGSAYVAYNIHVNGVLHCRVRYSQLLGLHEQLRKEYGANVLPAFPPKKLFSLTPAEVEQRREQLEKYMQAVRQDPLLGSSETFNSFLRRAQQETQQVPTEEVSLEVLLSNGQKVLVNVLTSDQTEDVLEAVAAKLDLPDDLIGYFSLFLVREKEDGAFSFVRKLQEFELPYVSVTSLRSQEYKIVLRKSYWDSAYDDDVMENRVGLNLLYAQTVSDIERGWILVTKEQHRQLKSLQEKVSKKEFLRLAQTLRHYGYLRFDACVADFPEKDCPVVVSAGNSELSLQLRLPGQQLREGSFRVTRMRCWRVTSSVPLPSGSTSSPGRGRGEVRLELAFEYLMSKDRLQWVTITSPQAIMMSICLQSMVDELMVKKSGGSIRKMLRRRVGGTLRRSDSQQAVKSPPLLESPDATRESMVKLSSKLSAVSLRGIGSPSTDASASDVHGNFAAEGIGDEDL

Chains of the proteins cited; added tags and fusions are not shown. Residues count along the entry.
UniProt P05067, residues 18-770: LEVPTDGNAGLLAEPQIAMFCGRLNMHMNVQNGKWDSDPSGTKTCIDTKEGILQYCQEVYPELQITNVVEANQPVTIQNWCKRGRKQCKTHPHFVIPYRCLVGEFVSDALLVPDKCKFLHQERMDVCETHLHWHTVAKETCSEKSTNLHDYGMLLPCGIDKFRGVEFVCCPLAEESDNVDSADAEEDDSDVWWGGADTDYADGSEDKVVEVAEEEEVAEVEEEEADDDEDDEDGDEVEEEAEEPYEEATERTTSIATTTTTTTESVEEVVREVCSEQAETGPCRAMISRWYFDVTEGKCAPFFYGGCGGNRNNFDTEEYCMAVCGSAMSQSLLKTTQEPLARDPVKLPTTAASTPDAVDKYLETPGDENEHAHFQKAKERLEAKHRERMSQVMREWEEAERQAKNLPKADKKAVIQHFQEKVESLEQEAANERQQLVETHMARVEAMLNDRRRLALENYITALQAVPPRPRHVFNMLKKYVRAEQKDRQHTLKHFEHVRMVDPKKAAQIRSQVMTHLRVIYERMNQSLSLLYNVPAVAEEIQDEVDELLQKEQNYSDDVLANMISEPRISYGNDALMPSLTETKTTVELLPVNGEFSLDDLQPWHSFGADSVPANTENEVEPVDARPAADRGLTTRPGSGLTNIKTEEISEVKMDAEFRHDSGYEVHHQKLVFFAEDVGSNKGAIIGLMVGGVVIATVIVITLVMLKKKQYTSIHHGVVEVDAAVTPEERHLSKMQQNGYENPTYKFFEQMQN
UniProt P98164, residues 26-4655: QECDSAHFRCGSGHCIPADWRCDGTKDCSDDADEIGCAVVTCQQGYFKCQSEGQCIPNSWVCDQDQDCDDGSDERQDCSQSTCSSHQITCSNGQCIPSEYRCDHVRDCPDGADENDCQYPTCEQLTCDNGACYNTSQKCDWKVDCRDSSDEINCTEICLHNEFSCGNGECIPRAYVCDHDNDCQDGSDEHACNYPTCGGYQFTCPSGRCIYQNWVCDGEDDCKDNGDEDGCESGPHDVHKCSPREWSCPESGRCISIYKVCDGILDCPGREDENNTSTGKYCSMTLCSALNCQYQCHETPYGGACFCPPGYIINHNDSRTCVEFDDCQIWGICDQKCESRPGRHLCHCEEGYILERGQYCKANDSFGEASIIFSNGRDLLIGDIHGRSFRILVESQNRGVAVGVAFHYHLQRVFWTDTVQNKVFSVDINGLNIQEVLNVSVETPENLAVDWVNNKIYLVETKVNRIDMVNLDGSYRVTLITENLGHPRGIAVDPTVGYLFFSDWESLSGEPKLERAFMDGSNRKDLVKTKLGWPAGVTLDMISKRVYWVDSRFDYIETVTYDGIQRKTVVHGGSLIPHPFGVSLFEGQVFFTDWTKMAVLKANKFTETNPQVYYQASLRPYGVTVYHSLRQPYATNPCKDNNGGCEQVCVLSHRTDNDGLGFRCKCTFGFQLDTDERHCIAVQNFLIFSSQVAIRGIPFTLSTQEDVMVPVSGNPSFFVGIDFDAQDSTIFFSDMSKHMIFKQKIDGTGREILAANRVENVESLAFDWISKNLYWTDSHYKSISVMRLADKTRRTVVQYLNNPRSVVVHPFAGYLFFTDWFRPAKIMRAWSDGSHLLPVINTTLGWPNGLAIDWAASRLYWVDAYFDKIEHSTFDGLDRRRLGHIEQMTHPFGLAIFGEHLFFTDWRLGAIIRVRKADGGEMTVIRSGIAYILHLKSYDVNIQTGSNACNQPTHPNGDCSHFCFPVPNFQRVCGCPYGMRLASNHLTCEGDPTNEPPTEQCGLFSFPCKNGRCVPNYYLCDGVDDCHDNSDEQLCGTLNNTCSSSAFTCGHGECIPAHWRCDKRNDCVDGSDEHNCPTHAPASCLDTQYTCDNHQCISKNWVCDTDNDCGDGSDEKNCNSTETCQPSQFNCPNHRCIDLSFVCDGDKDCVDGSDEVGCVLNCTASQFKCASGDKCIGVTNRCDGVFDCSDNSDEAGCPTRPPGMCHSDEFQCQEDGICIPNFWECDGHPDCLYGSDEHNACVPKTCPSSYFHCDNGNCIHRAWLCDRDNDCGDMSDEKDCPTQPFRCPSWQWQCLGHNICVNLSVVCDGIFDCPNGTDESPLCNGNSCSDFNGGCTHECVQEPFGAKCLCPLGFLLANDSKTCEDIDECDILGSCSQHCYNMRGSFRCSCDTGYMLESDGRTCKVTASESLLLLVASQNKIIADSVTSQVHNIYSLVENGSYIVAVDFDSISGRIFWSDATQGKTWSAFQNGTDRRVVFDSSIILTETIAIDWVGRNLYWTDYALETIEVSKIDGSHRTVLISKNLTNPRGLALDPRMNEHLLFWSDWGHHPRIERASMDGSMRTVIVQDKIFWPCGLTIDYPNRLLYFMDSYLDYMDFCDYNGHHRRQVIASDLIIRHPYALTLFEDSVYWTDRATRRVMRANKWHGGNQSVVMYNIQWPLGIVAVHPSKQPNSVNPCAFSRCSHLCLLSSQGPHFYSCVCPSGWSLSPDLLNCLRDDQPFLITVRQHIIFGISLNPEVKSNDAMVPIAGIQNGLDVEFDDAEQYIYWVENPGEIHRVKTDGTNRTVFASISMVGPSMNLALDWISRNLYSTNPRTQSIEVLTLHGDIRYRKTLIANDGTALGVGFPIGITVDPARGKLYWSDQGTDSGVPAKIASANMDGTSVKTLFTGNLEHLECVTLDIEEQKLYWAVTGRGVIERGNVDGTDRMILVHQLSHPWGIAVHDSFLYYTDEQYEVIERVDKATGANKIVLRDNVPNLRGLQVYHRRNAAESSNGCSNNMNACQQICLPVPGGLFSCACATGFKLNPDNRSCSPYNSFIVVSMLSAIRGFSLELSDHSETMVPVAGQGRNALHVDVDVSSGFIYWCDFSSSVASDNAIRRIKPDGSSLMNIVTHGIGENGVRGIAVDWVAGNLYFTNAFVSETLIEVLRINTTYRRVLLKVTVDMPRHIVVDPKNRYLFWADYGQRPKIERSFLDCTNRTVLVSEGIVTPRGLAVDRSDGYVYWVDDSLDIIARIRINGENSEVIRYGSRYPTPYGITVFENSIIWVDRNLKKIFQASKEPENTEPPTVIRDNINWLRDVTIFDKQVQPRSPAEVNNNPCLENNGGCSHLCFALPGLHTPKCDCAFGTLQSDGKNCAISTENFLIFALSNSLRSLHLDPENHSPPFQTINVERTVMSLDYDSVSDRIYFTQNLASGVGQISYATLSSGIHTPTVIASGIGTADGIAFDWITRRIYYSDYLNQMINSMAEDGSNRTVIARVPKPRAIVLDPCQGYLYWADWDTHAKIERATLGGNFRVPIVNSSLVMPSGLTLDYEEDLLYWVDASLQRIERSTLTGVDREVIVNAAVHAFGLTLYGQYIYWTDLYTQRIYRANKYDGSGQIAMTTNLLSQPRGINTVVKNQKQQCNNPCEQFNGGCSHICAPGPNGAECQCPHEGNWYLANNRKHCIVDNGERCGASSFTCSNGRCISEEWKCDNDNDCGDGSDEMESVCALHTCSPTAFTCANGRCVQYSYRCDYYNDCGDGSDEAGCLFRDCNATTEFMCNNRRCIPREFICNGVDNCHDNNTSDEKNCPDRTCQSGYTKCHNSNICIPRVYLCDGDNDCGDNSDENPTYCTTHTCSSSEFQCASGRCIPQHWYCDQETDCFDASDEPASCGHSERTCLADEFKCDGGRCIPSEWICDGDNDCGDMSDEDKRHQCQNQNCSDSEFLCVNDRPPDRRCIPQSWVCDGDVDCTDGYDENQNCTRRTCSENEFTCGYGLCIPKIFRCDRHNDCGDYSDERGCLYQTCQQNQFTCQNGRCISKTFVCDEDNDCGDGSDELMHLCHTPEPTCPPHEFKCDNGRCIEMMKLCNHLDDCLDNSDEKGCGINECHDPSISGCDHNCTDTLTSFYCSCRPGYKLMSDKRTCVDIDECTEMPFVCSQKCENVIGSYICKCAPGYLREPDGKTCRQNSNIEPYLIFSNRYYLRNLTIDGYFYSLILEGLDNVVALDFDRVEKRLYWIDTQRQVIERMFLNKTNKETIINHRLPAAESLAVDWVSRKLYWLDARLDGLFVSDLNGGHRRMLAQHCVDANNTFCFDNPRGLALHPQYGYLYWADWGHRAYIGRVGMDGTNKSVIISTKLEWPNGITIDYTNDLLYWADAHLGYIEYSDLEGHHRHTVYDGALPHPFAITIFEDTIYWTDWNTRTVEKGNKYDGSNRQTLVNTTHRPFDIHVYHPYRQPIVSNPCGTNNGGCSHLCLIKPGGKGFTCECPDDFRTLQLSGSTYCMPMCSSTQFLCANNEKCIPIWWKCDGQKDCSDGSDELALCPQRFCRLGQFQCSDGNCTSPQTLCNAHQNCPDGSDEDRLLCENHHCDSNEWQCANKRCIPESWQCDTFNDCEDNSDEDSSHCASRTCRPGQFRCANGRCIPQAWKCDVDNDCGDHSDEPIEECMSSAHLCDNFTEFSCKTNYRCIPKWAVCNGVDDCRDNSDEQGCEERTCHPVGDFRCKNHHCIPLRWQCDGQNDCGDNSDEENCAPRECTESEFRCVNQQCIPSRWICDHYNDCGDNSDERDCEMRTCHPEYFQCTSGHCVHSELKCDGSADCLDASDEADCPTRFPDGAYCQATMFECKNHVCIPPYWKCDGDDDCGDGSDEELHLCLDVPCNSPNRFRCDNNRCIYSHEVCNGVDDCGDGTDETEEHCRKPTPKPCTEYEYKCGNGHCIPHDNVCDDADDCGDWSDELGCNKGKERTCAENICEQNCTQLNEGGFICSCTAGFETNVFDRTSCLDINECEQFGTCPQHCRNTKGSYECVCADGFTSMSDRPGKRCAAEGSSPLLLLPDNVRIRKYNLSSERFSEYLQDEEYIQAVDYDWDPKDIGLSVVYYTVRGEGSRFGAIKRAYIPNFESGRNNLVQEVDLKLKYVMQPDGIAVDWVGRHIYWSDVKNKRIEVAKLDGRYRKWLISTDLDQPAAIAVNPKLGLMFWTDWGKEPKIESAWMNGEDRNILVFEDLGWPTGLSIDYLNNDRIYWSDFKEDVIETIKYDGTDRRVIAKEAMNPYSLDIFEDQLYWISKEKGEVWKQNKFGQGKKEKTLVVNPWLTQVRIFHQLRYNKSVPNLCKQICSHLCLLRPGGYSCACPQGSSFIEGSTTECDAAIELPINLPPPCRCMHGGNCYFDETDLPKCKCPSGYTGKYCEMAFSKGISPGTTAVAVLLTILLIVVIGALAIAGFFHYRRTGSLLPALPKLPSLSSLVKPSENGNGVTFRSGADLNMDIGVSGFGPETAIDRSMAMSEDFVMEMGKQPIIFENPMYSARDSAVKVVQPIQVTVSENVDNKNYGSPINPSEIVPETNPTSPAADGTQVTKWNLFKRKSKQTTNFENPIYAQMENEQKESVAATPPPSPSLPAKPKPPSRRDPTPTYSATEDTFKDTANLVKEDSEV

[2] = target: T2, GFP-SNX17(F462E) (human) (UniProt Q15036)
T2 sequence: T1 sequence with A462E

[3] = target: T3, GFP-SNX17(NFAF-AAAA) (human) (UniProt Q15036)
T3 sequence: T1 sequence with N459A, F460A

[4] = target: T4, GFP-tagged SNX17(M384E) (human) (UniProt Q15036)
T4 sequence: T1 sequence with M384E, A462F

[5] = target: T5, GFP-tagged SNX17(V380D) (human) (UniProt Q15036)
T5 sequence: T1 sequence with V380D, A462F

[6] = target: T6, GFP-tagged SNX17(W321A) (human) (UniProt Q15036)
T6 sequence: T1 sequence with W321A, A462F

Measured: binding

APP, endogenous (from UniProt P05067 18-770)
binds: [1] | [2] | [3]

LRP1, endogenous (from UniProt Q07954 20-4544) (receptor)
binds: all assays above

LRP2, endogenous (from UniProt P98164 26-4655) (receptor)
binds: [1] | [2] | [3]
